Some entries share one result that the patent states for a list of compounds. Where a SMILES comes first, the peptide text is derived from it. [ ]: non-standard residue; d: D form. The star is where a group is joined. Phe(Nα-CONH2) = NC(=O)N[C@@H](Cc1ccccc1)C(=O)*; NMeI = CC[C@H](C)[C@H](NC)C(=O)O; X1 = CN(/C=C\c1c[nH]c2ccccc12)*; NMeL = CN[C@@H](CC(C)C)C(=O)O; NMeV = CN[C@H](C(=O)O)C(C)C; NMeA = CN[C@@H](C)C(=O)O; For = O=C*
Tested on: Blood-Stage P. falciparum Strains
Assay: Initial blood-stage screen against several P. falciparum strains
Format: cell-based, Plasmodium falciparum
Settings: for IC50: multiple strains
Procedure: For parasite suspension, P. falciparum malaria strains were grown under normal conditions as previously described by Trager and Jensen with some modifications.” Briefly, parasites were suspended in RPMI 1640 supplemented with 0.23% sodium bicarbonate, […] hypoxanthine and 0.5% albumax (CM), 4% packed washed red blood cells by volume and incubated in a continuous gas incubator set to normal conditions (5% O2, 5% CO2, […]). Parasites were prepared for drug susceptibility assay by highly synchronizing schizonts 16 h before experiment start by using a 70% percoll method. Ring stage parasites were then resuspended in culture with fresh CM containing 2% hematocrit and 0.5% parasitemia.
Antimalaria activity was assessed against reference strains of NF54, 3D7 and Dd2 using an adaptation of the sensitivity assay of Desjardins et al. using SybrGreen fluorescence as an assessment of parasite growth.^32 NF54 original isolate was obtained from a patient living near Schiphol Airport, Amsterdam and its clonal isolate 3D7 are generally considered to be drug sensitive, though 3D7 does convey resistance to sulfadoxine. Dd2 derived from the parent W2, is multi-drug-resistant line originating from the Indochina III/CDC isolate, which contain point mutations in pfcrt as well as amplifications in pfmdr1 and GTP cyclohydrolase. Briefly, compounds were diluted to 10 μg/mL and serially diluted along a microtiter plate before adding in 100 μL/well of the parasite suspension. Parasite growth was compared to controls incubated at 37° C. and normal culture conditions (5% O2, 5% CO2, 90% N2) for 72 h. Plates were frozen and thawed before adding a final 1× concentration of SybrGreen in lysis buffer and read on the CLARIOstar fluorescence plate reader (Ex/Em 484-15/528-15) following a 45 min incubation at room temperature. Drug EC50 values were calculated by interpolation of the probit transformation of the log(dose)-response curve using the MARS software provided by BMG.

Structure (SMILES)	activity against multiple strains	IC50 [µM]
CC[C@H](C)[C@@H](C(=O)N(C)/C=C\c1c[nH]c2ccccc12)N(C)C(=O)[C@H](C(C)C)N(C)C(=O)[C@H](C(C)C)N(C)C(=O)[C@H](CC(C)C)N(C)C(=O)[C@@H]1CCCN1C(=O)[C@H](Cc1ccccc1)NC(=O)[C@H](Cc1ccccc1)NC(C)=O [Compound P2, friomaramide B] (Ac-FFP[NMeL][NMeV][NMeV][NMeI]-X1)	below 10 μg/mL	< 10
CC[C@H](C)[C@@H](C(N)=O)N(C)C(=O)[C@H](C(C)C)N(C)C(=O)[C@H](CC(C)C)N(C)C(=O)[C@H](Cc1ccccc1)N(C)C(=O)[C@H](Cc1ccccc1)NC=O [Compound P3, shagamide A]	below 10 μg/mL	< 10
CNC(=O)[C@H](C(C)C)N(C)C(=O)[C@H](C(C)C)N(C)C(=O)[C@H](C(C)C)N(C)C(=O)[C@H](C)N(C)C(=O)[C@H](C)N(C)C(=O)[C@H](CC(C)C)N(C)C(=O)[C@H](C(C)C)N(C)C(=O)[C@H](Cc1ccccc1)NC=O [Compound P5, shagamide C] (For-F[NMeV][NMeL][NMeA][NMeA][NMeV][NMeV][NMeV]-NHMe)	below 10 μg/mL	< 10
CNC(=O)[C@H](C(C)C)N(C)C(=O)[C@H](C(C)C)N(C)C(=O)[C@H](C(C)C)N(C)C(=O)[C@H](C)N(C)C(=O)[C@H](C)N(C)C(=O)[C@H](CC(C)C)N(C)C(=O)[C@H](C(C)C)N(C)C(=O)[C@H](Cc1ccccc1)NC(N)=O [Compound P6, shagamide D] ({Phe(Nα-CONH2)}-[NMeV][NMeL][NMeA][NMeA][NMeV][NMeV][NMeV]-NHMe)	below 10 μg/mL	< 10
